In article PMC11081805:
Substitutions are numbered along the chain they refer to. Names and notes keep the numbering of the source. No constants are given. Whether binding was seen depends on the method and setting. Binding seen in cells or lysates may run through a third protein. Some entries that bind do so weakly or less than the wild type. For part of these data: Where a sequence is shown, tags or fusion partners need not be part of it.

Amino acid sequences for entries named in this document (tags omitted).
UniProt P53779: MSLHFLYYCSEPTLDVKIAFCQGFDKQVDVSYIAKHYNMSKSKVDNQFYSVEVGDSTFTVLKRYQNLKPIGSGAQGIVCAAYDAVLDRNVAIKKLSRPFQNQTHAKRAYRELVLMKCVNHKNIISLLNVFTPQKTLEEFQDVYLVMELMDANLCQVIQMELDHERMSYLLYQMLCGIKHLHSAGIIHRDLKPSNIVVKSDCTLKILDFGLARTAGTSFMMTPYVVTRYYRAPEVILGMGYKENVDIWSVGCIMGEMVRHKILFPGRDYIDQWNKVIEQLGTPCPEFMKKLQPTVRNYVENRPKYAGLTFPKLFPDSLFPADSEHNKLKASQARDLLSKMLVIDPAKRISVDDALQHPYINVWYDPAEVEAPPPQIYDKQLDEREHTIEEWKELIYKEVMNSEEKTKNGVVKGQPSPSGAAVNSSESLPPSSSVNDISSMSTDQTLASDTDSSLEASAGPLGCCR

Columns and labels:
[1] = molecular target: MYC-GluK2 (full-length kainate receptor subunit GluK2) (mouse) (UniProt P39087); experiment: co-IP; HEK293T cells co-expressing full-length MYC-GluK2 and EGFP-JNK3; MYC-IP; lysis buffer 50 mM Tris-HCl pH 7.5, 100 mM NaCl, 1% Triton-X; mouse IgG as negative control
[2] = molecular target: T1, FLAG-SAP102 (FLAG-tagged WT SAP102) (human) (UniProt Q92796); experiment: co-IP; HEK293T cells co-expressing FLAG-SAP102, JNK3-V5 and EGFP-GluK2-cyto (intact PDZ ligand); precipitating antibody not given; lysis buffer 50 mM Tris-HCl pH 7.5, 100 mM NaCl, 0.1% Triton-X
T1 sequence: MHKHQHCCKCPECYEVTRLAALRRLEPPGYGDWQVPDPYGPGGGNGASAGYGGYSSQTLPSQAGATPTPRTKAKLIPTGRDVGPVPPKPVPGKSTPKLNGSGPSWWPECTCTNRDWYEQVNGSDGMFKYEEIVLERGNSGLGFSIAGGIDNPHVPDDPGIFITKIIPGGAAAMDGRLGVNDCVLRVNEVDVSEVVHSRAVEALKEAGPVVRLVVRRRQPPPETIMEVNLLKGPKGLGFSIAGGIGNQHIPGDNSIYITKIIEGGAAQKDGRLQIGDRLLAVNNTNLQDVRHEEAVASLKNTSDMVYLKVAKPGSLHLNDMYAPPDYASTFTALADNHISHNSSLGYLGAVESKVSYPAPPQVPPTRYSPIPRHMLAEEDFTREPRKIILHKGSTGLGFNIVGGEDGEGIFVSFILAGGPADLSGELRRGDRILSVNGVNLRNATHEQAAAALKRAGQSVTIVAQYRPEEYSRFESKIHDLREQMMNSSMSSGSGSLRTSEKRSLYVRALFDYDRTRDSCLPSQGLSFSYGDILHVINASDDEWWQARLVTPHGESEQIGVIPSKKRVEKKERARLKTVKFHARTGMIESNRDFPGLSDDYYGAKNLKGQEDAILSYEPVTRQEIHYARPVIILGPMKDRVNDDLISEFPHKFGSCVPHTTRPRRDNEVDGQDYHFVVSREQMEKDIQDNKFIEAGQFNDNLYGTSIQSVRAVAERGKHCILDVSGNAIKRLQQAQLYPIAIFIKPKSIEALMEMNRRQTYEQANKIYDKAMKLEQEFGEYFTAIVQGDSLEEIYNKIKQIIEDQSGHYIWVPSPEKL

[3] = molecular target: T2, EGFP-GluK2-cyto (cytoplasmic C-terminal tail of GluK2) (mouse) (UniProt P39087); experiment: co-IP; HEK293T cells co-expressing EGFP-GluK2-cyto or EGFP-GluK2-cytoINT and JNK3-V5; GFP-IP, blot with anti-V5; lysis buffer 50 mM Tris-HCl pH 7.5, 100 mM NaCl, 0.1% Triton-X; mouse IgG as negative control
T2 sequence: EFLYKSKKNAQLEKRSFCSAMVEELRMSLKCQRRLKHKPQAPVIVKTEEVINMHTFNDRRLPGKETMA

[4] = molecular target: T3, EGFP-GluK2-cytoINT (cytoplasmic GluK2 C terminus with phospho-mimicking mutations S846E and S868E) (mouse) (UniProt P39087); experiment: as above
T3 sequence: T2 sequence with S6E, S28E

[5] = molecular target: T1, FLAG-SAP102 (FLAG-tagged WT SAP102) (human); experiment: co-IP; HEK293T cells co-expressing FLAG-SAP102, JNK3-V5 and EGFP-GluK2-cyto-short (841-882, PDZ ligand deleted); precipitating antibody not given; lysis buffer 50 mM Tris-HCl pH 7.5, 100 mM NaCl, 0.1% Triton-X
[6] = molecular target: T2, EGFP-GluK2-cyto (cytoplasmic C-terminal tail of GluK2) (mouse); experiment: co-IP; HEK293T cells co-expressing FLAG-SAP102, JNK3-V5 and EGFP-GluK2-cyto (intact PDZ ligand); precipitating antibody not given; lysis buffer 50 mM Tris-HCl pH 7.5, 100 mM NaCl, 0.1% Triton-X
[7] = molecular target: T2, EGFP-GluK2-cyto (cytoplasmic C-terminal tail of GluK2) (mouse); experiment: co-IP; CHL cells co-expressing FLAG-SAP102 (WT or S368A) and EGFP-GluK2-cyto; GFP-IP (2 ug antibody, Protein G Agarose), blot with anti-FLAG; mouse IgG as negative control; lysis buffer 50 mM Tris-HCl pH 7.5, 100 mM NaCl, 0.1% Triton-X
[8] = molecular target: T2, EGFP-GluK2-cyto (cytoplasmic C-terminal tail of GluK2) (mouse); experiment: co-IP; Fig. S6 (not shown): GluK2 cytosolic region with SAP102; cells, constructs and antibody not given

## EGFP-JNK3 (from UniProt P53779 1-464) (enzyme)
[1]
  binding: binds

## JNK3-V5 (from UniProt P53779 1-464) (enzyme)
[2]
  binding: binds
[3]
  binding: binds
[4]
  binding: binds
[5]
  binding: binds weakly

B1: FLAG-SAP102 (FLAG-tagged WT SAP102) (protein, UniProt Q92796 1-817)
chain: T1 sequence
[6]
  binding: binds
[7]
  binding: binds
[8]
  binding: binds

B2: FLAG-SAP102-S368A (phospho-deficient SAP102 variant) (protein, UniProt Q92796 1-817)
chain: T1 sequence with S368A
[7]
  binding: binds
